Data from PubChem BioAssay AID540276 (National Center for Advancing Translational Sciences (NCATS), 2011).
Screen size: about 300,000 compounds; about 5,400 (1.8%) were called active. This list was built around the results that the source calls inconclusive (neither active nor inactive); the mix of calls is not that of the screen. Calls follow the shape of the full dose curve; tested in HEK293 cells. Potencies of inconclusive entries are doubtful fits and often do not repeat.

Assay: qHTS for inhibitors of binding or entry into cells for Marburg Virus
Conditions: Marburg virus pseudotyped entry inhibition, cell reporter; series mostly up to 37.8 µM
Potency is read from the fitted curve at half-maximal effect.

SMILES | Potency
Cc1sc2ncnc(N(C)Cc3cccs3)c2c1C | inactive
O=C(Cc1cccc2ccccc12)Nc1nnc(-c2cccc([N+](=O)[O-])c2)s1 | inactive
Cc1cc(N2CCCCC2)n2ncc(-c3ccccc3)c2n1 | inconclusive: 0.112 µM [activator, full curve, poor fit]
CCCCN1CCC(COC(=O)c2cc(Cl)c(N)c3c2OCCO3)CC1 | active: 11.2 µM
O=c1[nH]c(SCCOc2cccc3ccccc23)nc2ccccc12 | active: 2.82 µM
O=C(CSc1nnc(CNC(=O)C23CC4CC(CC(C4)C2)C3)n1-c1ccc(F)cc1)Nc1ccccc1 | inconclusive: 8.91 µM [inhibitor, partial curve, poor fit]
CCN(CC)c1ccc2c(Cl)c(Br)c(=O)oc2c1 | inconclusive: 29.1 µM [inhibitor, single point]
COc1ccc(OC)c(NC(=O)COC(=O)c2ccc(S(=O)(=O)N3CCOCC3)cc2)c1 | inconclusive: 3.55 µM [inhibitor, partial curve, poor fit]
Cc1ccnc(NC(=O)c2ccc(Cl)c(NC(=O)C(C)Oc3ccccc3)c2)c1 (stereo unspecified) | inconclusive: 1.78 µM [inhibitor, partial curve, poor fit]
COc1cc(OC)cc(-c2nc3n(n2)C(c2ccccc2F)C(C(=O)Nc2cccnc2)=C(C)N3)c1 (stereo unspecified) | inconclusive: 35.5 µM [inhibitor, partial curve, poor fit]
N#CC1=C(SCC(=O)c2ccccc2)NC2=C(C(=O)CCC2)[C@H]1c1ccco1 | inconclusive: 3.98 µM [inhibitor, partial curve, poor fit]
C1=NCCc2c1[nH]c1ccccc21 | inconclusive: 14.1 µM [inhibitor, partial curve, poor fit]
Cc1ccc(S(=O)(=O)N(C)Cc2cc3ccccc3[nH]c2=O)cc1 | inactive
Nc1cccc2c1C(=O)N(CCOc1ccc(F)cc1)C2=O | inconclusive: 11.2 µM [inhibitor, partial curve, poor fit]
C=CCNC(=O)CSc1cc([N+](=O)[O-])cc(S(=O)(=O)Cc2ccccc2)c1 | inconclusive: 1.26 µM [inhibitor, single point]
C/C(=N/NC(=O)C(C)n1nc(C)c([N+](=O)[O-])c1C)c1ccc(OCC(N)=O)cc1 (stereo unspecified) | inactive
O=C(Cc1ccccc1)N1CCN(Cc2cccnc2)CC1 | inactive
COc1ccc(C(CNC(=O)c2oc3ccccc3c2C)N2CCCCC2)cc1 (stereo unspecified) | inconclusive: 22.4 µM [inhibitor, partial curve, poor fit]
Cc1ccc(NC(=O)C2CCN(S(=O)(=O)c3cccs3)CC2)cc1C | inconclusive: 2.51 µM [inhibitor, partial curve, poor fit]
CCOc1ccc2cc(C#N)c(SCC(=O)N3CCC(C)CC3)nc2c1 | inconclusive: 29.1 µM [inhibitor, single point]
Cc1ccc(C(=O)NC2CCCCCCC2)cc1S(=O)(=O)N1CCOCC1 | inconclusive: 3.55 µM [activator, single point]
Cc1ccc(O)c(NC(=O)c2ccco2)c1 | inactive

Arranged by count of non-hydrogen atoms (rising): some entries from above
SMILES | Potency
Cc1ccc(S(=O)(=O)N(C)Cc2cc3ccccc3[nH]c2=O)cc1 | inactive
O=c1[nH]c(SCCOc2cccc3ccccc23)nc2ccccc12 | active: 2.82 µM
COc1ccc(OC)c(NC(=O)COC(=O)c2ccc(S(=O)(=O)N3CCOCC3)cc2)c1 | inconclusive: 3.55 µM [inhibitor, partial curve, poor fit]

Further results follow:

SMILES | Potency
OCCNCCCCOc1ccc(F)cc1 | inactive
Cc1c(N(C)C(=O)COc2ccc3ccccc3c2)c(=O)n(-c2ccccc2)n1C | inactive
Cc1n[nH]c(C)c1CCCOc1ccccc1 | inconclusive: 1.26 µM [inhibitor, partial curve, poor fit]
COc1ccc(S(=O)(=O)N(CC(=O)NC2CCCCC2)c2ccc(F)cc2)cc1 | inconclusive: 17.8 µM [activator, partial curve, poor fit]
CC(C)(C)NS(=O)(=O)c1cc(C(=O)O)ccc1Cl | inconclusive: 31.6 µM [activator, single point]
O=[N+]([O-])c1ccc(Cl)c(/C=N/N2CCN(Cc3ccccc3Cl)CC2)c1 | inactive
COc1ccc(CNC(=O)CN(c2ccc(C(C)=O)cc2)S(=O)(=O)c2ccc(C)cc2)cc1OC | inconclusive: 35.5 µM [inhibitor, single point]
CCCCCOc1ccc(NC(=O)C(=O)NCCCn2ccnc2)cc1 | inconclusive: 18.3 µM [inhibitor, partial curve, poor fit]
Cc1ccc(S(=O)(=O)N/N=C\c2cc3c(cc2[N+](=O)[O-])OCO3)cc1 | inconclusive: 11.6 µM [inhibitor, partial curve, poor fit]
COc1cc(/C=C/c2ccccc2)cc(OC)c1 | inconclusive: 10 µM [activator, partial curve, poor fit]
COc1ccc(CNC(=O)Cc2c(C)c3c(O)cc(C)cc3oc2=O)cc1 | inconclusive: 14.1 µM [activator, single point]
COCCn1c(=O)[nH]c(=O)c2c(C(F)(F)F)cc(-c3cccs3)nc21 | inconclusive: 4.47 µM [inhibitor, full curve, poor fit]
O=c1c2[nH]c3ccccc3c2ncn1CCN1CCOCC1 | inconclusive: 0.13 µM [inhibitor, full curve, poor fit]
Cc1ccc(C(=O)N2CC(=O)Nc3ccc(Br)cc3C2c2ccc(F)cc2)cc1C (stereo unspecified) | inconclusive: 2 µM [inhibitor, single point]
CCOC(=O)N1CCN(C/C(C)=C/c2ccccc2)CC1 | inactive
CCOC(=O)c1cc2c(=O)n3ccccc3nc2n(CC(C)C)c1=NC(=O)C(C)(C)Oc1ccc(Cl)cc1 | inactive
COc1ccc(CCNC2CCN(C)CC2)cc1OC | inconclusive: 3.98 µM [inhibitor, partial curve, poor fit]
COc1ccccc1C(=O)Nc1ccc2c(c1)nc1n2CCSC1 | inconclusive: 29.1 µM [inhibitor, single point]
O=C(NC(Nc1nc2ccc([N+](=O)[O-])cc2s1)(C(F)(F)F)C(F)(F)F)c1cccnc1 | inconclusive: 7.31 µM [inhibitor, partial curve, poor fit]
COc1ccc(CNC(=O)CSc2n[nH]c(C)c2[N+](=O)[O-])cc1 | inconclusive: 17.8 µM [activator, single point]
O=C(Nc1ccccc1C(=O)Nc1ccc2c(c1)OCO2)c1ccco1 | inconclusive: 3.16 µM [activator, full curve, poor fit]
O=C(NCCCN1CCOCC1)c1cc(Cl)ccc1OCc1ccccc1 | inconclusive: 35.5 µM [inhibitor, single point]

SMILES | Potency
O=C(Oc1cc(=O)oc2c1c(=O)n1c3c(cccc23)CC1)c1ccc(F)cc1 | inactive
COc1ccc(N2C(=O)NC(NS(=O)(=O)c3ccc(NC(C)=O)cc3)(C(F)(F)F)C2=O)cc1 (stereo unspecified) | inactive
COc1ccc(CNCCc2ccc(Cl)cc2)cc1OCc1ccccc1 | inconclusive: 25.1 µM [inhibitor, single point]
Cc1cc(/C=N/NC(=O)c2nn(C)cc2Cl)c(C)n1-c1cccc(Br)c1 | inconclusive: 6.51 µM [inhibitor, partial curve, poor fit]
Cc1cc(C(=O)N2CCN(c3ccccc3)CC2)no1 | inactive
COc1ccc(S(=O)(=O)Nc2cc(Cl)ccc2OC)cc1 | inconclusive: 7.08 µM [inhibitor, partial curve, poor fit]
COc1cccc(OC)c1C(=O)OCC(=O)N1CC(C)CC(C)C1 (stereo unspecified) | inconclusive: 11.2 µM [inhibitor, partial curve, poor fit]
CC1CCN(Cc2cc(=O)oc3ccc4ccccc4c23)CC1 | inconclusive: 7.94 µM [inhibitor, partial curve, poor fit]
O=C(CNc1ccccc1F)Nc1cccc(S(=O)(=O)N2CCCCC2)c1 | inactive
CCOc1ccc(C(C)=O)cc1COc1ccc(C)nc1[N+](=O)[O-] | inactive
O=C(Nc1ccc(S(=O)(=O)NC2=NCCCCC2)cc1)c1cccc(S(=O)(=O)N2CCOCC2)c1 | inconclusive: 5.01 µM [inhibitor, full curve, poor fit]
O=C(NC(=S)N1CCN(Cc2ccc3c(c2)OCO3)CC1)c1cccc(Br)c1 | inactive
CCOc1ccc(S(=O)(=O)NCc2cccnc2)cc1C(C)C | inconclusive: 35.5 µM [inhibitor, single point]
CS(=O)(=O)c1ncc(N(Cc2ccco2)Cc2cccs2)c(C(=O)Nc2ccccc2F)n1 | inactive
CCCC1=Nc2cc(C(=O)NCCCN(CC)CC)ccc2Sc2ccccc21 | inconclusive: 11.2 µM [inhibitor, partial curve, poor fit]
O=C(CC1CS(=O)(=O)CC1CC(=O)Oc1ccccc1F)Oc1ccccc1F (stereo unspecified) | inconclusive: 5.01 µM [activator, full curve, poor fit]
O=C(COc1ccc([N+](=O)[O-])cc1)Nc1cc(S(=O)(=O)N2CCCCC2)ccc1N1CCCCC1 | inactive
Cc1cccc(C)c1N=Cc1c(O)n(-c2nccs2)c(=O)c2ccccc12 | inconclusive: 11.2 µM [inhibitor, partial curve, poor fit]
Cc1ccc(N(CC(=O)N/N=C/c2cc(C)n(-c3ccccc3)c2C)S(C)(=O)=O)c(C)c1 | inconclusive: 22.4 µM [inhibitor, single point]
COc1ccc(-c2csc(NC(C)=O)n2)cc1OC | inconclusive: 15.8 µM [activator, single point]
COc1ccc(CNC(=S)NCc2ccc(F)cc2)cc1OC | inactive
CCCCn1c2c(c(=O)n(C)c1=O)C(c1ccc(OC)cc1)N1CCCCCC1=N2 (stereo unspecified) | inconclusive: 25.1 µM [inhibitor, single point]
